Plain letter strings leave the end groups untold.

The nature of the first series: peptide made by a vendor. The note with it: whole synthesis, 214 nm, TFA Salt.
With “Gly-Cys-Asp-Gln-Gly-His-Ser-Ser-Gly-Trp-Gln-Lys-Cys-Lys-Gln- Asp-Ser-Asp-Cys-Leu-Ala-Gly-Cys-Val-Cys-Trp-Phe-Arg-Trp-His- Cys-Gly”, the “final HPLC purity” value was found to be 96.30%.

Staying with this series, now noted: whole synthesis, 214 nm, TFA Salt, several disulfide bridges, sequence written open.
For the substance GCRPRWGGWHCKQDSDCLAGCVCGPNGFCG, the “final HPLC purity” value was found to be 98.25%.

ACKGVFDACTVFEVTDTGVLECCPNAVCSDKHKWCKWKL: the “final HPLC purity” value is on record as 95.54%.

As to GCMPRYGGWHCKQDSDCLAGCVCGPNGFCG, the “final HPLC purity” value turned out to be 96.56%.

Regarding GCQQRRWGGWQQCKQDSDCLAGCVCGPNGFCG, the “final HPLC purity” value came to 93.20%.

Regarding AFDCLGQCGRCDFHKLQCVMVYFIHMTKPYCNSSCTR, the “final HPLC purity” value was 95.80%.

For the substance GCGQTTAWEPCKQDSDCLAGCVCFMRWHCG, the “final HPLC purity” value came out at 95.26%.

On to GCGQQRWGGWPLCKQDSDCLAGCVCGPNGFCG, for which the “final HPLC purity” value amounted to 95.75%.

On to GCEQSTWWAPCKQDSDCLAGCVCYQRWHCG, for which the “final HPLC purity” value is reported as 95.70%.

The same series, now with this note: whole synthesis, 214 nm, TFA salt, several disulfide bridges, sequence written open.
Turning to GCQQRRWGGWQQCKQDSDCLAGCVCGPNGFCG, the “final HPLC purity” value stood at 94.15%.
